Data taken from article PMC5016147.
Results are given in words; binding and its absence hold for the method and conditions named. In cells and extracts the contact can be indirect. A yes stands for co-enrichment or nearness to the bait. Other partners may have been found.

The chains behind the UniProt entries cited, without tags or fusion partners.
UniProt P52332: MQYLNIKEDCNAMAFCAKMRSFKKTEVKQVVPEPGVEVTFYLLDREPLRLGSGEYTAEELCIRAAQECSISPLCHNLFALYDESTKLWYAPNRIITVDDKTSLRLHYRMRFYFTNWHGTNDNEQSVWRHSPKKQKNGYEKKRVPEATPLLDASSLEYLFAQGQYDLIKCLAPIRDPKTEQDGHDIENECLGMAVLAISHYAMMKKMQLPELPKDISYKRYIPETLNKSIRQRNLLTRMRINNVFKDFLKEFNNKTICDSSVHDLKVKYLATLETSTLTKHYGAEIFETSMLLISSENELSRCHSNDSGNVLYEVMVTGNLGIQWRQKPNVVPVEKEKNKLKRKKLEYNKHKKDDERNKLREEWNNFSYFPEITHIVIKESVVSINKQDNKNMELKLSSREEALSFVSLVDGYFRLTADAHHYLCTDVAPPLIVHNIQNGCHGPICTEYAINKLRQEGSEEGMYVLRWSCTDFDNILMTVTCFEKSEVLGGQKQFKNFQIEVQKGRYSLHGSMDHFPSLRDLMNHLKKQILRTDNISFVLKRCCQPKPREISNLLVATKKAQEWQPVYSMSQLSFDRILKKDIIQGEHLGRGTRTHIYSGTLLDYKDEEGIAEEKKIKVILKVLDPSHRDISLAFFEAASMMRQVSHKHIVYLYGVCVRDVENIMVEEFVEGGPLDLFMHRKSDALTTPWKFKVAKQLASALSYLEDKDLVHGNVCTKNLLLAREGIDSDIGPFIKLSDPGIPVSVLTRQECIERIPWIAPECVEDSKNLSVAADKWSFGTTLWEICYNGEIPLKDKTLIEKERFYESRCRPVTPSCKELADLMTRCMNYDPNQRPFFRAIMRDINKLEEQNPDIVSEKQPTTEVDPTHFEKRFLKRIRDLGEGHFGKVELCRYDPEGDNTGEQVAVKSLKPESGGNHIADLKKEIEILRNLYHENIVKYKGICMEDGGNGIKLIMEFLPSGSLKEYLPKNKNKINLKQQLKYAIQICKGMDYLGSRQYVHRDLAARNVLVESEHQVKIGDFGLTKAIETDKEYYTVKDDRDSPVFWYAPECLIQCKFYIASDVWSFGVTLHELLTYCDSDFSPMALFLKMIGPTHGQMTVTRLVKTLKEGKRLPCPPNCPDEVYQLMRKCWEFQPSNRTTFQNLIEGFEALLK
UniProt Q8C050: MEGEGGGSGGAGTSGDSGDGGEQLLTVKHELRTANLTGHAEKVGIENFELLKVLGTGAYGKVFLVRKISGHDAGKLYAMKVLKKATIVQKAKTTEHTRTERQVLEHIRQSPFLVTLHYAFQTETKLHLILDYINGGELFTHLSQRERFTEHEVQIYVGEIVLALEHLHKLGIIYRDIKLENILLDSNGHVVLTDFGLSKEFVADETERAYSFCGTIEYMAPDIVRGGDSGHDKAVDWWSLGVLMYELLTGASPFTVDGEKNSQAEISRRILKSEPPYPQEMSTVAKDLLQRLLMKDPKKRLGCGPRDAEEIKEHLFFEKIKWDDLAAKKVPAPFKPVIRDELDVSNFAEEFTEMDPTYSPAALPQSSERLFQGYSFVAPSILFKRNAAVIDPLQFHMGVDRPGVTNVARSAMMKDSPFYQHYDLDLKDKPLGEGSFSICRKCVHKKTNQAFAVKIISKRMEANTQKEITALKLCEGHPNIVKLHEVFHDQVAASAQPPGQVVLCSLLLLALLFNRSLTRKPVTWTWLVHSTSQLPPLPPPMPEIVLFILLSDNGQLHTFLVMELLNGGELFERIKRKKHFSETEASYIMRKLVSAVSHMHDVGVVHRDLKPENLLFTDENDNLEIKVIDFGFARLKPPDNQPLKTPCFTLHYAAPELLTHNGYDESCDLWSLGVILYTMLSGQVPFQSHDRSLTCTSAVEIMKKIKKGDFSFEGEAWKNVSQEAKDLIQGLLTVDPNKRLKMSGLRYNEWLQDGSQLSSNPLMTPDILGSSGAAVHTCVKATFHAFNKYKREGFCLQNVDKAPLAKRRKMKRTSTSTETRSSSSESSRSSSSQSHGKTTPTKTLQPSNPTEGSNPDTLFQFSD
UniProt Q9Z2B9: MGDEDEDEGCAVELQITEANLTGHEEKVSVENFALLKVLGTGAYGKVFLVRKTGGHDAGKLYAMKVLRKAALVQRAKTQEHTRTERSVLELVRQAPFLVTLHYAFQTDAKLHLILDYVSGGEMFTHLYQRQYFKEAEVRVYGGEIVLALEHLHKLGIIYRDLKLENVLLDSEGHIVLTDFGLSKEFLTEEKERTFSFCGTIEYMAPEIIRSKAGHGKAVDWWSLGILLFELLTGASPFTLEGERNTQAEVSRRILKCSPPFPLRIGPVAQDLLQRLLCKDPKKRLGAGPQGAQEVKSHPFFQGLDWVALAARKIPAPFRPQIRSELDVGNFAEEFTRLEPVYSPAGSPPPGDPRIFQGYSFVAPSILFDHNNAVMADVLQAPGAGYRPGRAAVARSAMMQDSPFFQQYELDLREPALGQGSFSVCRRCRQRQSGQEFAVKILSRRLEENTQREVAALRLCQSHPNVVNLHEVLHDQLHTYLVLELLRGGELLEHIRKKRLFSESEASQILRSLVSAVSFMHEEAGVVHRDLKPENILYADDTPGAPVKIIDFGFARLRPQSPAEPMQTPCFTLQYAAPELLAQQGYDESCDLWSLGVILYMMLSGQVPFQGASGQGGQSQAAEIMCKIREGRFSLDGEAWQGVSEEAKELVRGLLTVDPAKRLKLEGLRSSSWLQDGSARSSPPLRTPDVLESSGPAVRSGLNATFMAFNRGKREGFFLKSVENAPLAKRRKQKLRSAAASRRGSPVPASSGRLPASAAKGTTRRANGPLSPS
UniProt Q9QZL0: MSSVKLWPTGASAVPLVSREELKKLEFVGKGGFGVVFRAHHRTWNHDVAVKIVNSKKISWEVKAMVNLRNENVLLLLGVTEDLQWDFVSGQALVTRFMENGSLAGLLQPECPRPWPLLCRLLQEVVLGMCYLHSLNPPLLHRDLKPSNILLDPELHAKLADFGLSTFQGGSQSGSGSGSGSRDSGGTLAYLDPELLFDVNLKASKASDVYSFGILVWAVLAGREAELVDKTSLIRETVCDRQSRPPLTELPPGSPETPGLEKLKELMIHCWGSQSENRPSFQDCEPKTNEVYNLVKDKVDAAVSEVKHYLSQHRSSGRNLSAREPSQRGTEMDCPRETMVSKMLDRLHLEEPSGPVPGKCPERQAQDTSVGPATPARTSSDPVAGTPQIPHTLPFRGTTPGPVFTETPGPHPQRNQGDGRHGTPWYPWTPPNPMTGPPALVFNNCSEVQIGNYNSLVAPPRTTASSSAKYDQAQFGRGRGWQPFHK
UniProt P18654: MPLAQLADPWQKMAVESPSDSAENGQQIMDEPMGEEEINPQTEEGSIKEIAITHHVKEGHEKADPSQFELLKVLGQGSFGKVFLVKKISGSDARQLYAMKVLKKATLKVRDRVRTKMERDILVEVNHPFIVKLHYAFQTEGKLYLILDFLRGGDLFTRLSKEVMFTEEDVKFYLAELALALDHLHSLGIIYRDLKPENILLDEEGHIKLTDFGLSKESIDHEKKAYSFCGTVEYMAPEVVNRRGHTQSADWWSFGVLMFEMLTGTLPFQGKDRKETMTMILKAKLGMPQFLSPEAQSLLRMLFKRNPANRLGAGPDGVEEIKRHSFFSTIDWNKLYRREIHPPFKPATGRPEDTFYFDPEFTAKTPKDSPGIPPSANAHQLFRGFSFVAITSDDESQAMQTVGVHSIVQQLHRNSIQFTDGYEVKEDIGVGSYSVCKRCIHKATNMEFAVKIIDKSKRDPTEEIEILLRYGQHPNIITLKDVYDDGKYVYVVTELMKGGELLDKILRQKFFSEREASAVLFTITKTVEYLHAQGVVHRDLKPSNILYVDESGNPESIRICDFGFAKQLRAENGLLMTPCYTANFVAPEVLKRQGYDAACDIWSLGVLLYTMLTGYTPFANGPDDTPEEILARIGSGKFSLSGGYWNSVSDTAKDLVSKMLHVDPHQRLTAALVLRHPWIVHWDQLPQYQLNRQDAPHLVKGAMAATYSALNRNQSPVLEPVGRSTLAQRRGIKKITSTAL

T1: Gadd45a TAP (mouse) (UniProt P48316)
T1 sequence: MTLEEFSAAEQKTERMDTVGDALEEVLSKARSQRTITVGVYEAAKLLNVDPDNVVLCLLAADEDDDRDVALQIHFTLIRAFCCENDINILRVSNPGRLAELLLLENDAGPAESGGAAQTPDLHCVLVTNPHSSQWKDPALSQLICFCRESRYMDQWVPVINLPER

B1: RIO kinase 3 (enzyme, UniProt Q9DBU3 1-519)
chain: MDLVGVSSPEPGPAAAWGPSKCPWATPQNTVSCSLTEVMSEELAKELQLEEEAAAFPEVVVAEGPFISGENIDTSSDLMLAQMLQMEFDREYDAQLRREEKKFNGDSKVSISFENYRKVHPFEDSDSSEDEVDWQDTRDDPYRPAKPIPTPKKGFIGKGKDITTKHDEVVCGRKNTARMENFAPGFQVGDGIGMDLKLSNHVFNALKQHAYSEERRSARLHEKKEHSTAEKAVDPKTRLLMYKMVNSGMLETITGCISTGKESVVFHAYGGSLEDEKEDGKAIPTECAIKVFKTTLNEFKNRDKYIKDDFRFKDRFSKLNPRKIIRMWAEKEMHNLTRMQKAGIPCPTVVLLKKHILVMSFIGHDQVPAPKLKEVKLSNEEMKDAYYQTLHLMQQLYNECTLVHADLSEYNMLWHAGKVWLIDVSQSVEPTHPHGLEFLFRDCRNVSQFFQKGGVTEALNERELFNAVSGLNISADNEADFLAEIEALEKMNEDHIQKNGRKAASFLKDDGSPPVLSAD
B2: A-Raf (enzyme, UniProt P04627 1-604)
chain: MEPPRGPPVSGAEPSRAVGTVKVYLPNKQRTVVTVREGMSVYDSLDKALKVRGLNQDCCVVYRLIKGRKTVTAWDTAIAPLDGEELIVEVLEDVPLTMHNFVRKTFFSLAFCDFCLKFLFHGFRCQTCGYKFHQHCSSKVPTVCVDMSTNRRQFYHSIQDLSGGSRQQEAPSNLSVNELLTPQGPSPFTQQRDQEHFSFPAPANPPLQRIRSTSTPNVHMVSTTAPMDSSLMQFTAQSFSTDAAGRGGDGAPRGSPSPASVSSGRKSPHSKLPSEQRERKSLADEKKKVKNLGYRDSGYYWEVPPSEVQLLKRIGTGSFGTVFRGRWHGDVAVKVLKVAQPTAEQAQAFKNEMQVLRKTRHVNILLFMGFMTRPGFAIITQWCEGSSLYHHLHVADTRFDMVQLIDVARQTAQGMDYLHAKNIIHRDLKSNNIFLHEGLTVKIGDFGLATVKTRWSGAQPLEQPSGSVLWMAAEVIRMQDPNPYSFQSDVYAYGVVLYELMTGSLPYSHIGSRDQIIFMVGRGYLSPDLSKIFSNCPKAMRRLLTDCLKFQREERPLFPQILATIELLQRSLPKIERSASEPSLHRTQADELPACLLSAARLVP

What follows are molecules tested against T1, Gadd45a TAP (mouse) (assay: affinity purification with mass spectrometry; tandem affinity purification of Gadd45a TAP from pooled protein extracts of TA muscles of 48 mice, 10 days post-transfection; anti-FLAG magnetic beads, elution with 3x FLAG peptide, then S-protein agarose; 4 °C; 50 mM HEPES pH 7.0, 150 mM NaCl, 5 mM MgCl2, 2 mM EGTA, 0.1-0.5% Triton X-100, 0.5 mM DTT; control: muscles transfected with empty TAP plasmid).

binding | Molecule
binds | JAK1 (from UniProt P52332 1-1153) (enzyme)
binds | MSK1 (from UniProt Q8C050 1-863) (enzyme)
binds | MSK2 (from UniProt Q9Z2B9 1-773) (enzyme)
binds | RIPK3 (from UniProt Q9QZL0 1-486) (enzyme)
binds | RSK2 (from UniProt P18654 1-740) (enzyme)
binds | Raf-1 (from UniProt Q99N57 1-648) (enzyme)
binds | B1
binds | B2
